The target of experiment [1] is T1, MFSD1-strep (mouse major facilitator superfamily domain containing 1 protein with N-terminal Twin-Strep-tag) (mouse) (UniProt Q9DC37).
T1 sequence: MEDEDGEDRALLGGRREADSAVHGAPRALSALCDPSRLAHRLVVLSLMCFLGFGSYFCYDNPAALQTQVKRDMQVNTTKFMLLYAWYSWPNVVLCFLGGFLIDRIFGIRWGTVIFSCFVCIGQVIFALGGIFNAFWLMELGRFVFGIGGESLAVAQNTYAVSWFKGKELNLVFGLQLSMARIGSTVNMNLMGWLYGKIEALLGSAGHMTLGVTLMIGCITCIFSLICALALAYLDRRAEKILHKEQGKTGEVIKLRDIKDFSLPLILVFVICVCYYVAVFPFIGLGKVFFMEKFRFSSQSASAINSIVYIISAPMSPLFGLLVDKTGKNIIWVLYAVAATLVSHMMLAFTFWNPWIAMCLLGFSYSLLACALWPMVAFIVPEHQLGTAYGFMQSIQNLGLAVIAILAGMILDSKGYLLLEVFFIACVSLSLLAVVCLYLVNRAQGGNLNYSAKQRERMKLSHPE
As to the kind of experiment: SEC; co-purification from co-expressing Expi293F cells: Strep-TactinXT, then Ni-NTA, TEV cleavage, reverse Ni-NTA, then Superose 6 increase 3.2/300 in 20 mM HEPES pH 7.5, 150 mM NaCl, 0.03% DDM, 0.003% CHS; SDS-PAGE of the peak.

The target of experiment [2] is T1, MFSD1-strep (mouse major facilitator superfamily domain containing 1 protein with N-terminal Twin-Strep-tag) (mouse). As to the kind of experiment: pull-down; MFSD1-Nt-strep co-expressed with GLMP-Ct-His-GFP in Expi293F; detergent-extracted soluble fraction pulled down over Strep-Tactin beads; elution fraction blotted with antibodies against MFSD1 or GLMP; performed once.

No constants are given. Whether binding was seen depends on the method and setting. For some assays here: In cells and extracts the contact can be indirect. Some results given as binding are weak or reduced against the parent protein; the word gives no strength. Where a sequence is shown, tags or fusion partners need not be part of it.

B1: GLMP-Ct-His-GFP (mouse glycosylated lysosomal membrane protein with C-terminal TEV site, GFP and 8xHis tag) (protein, UniProt Q9JHJ3 36-404)
chain: EETRQVSMEVISGWPNPQNLLHIRAVGSNSTLHYVWSSLGPPAVVLVATNTTQSVLSVNWSLLLSPDPAGALMVLPKSSIQFSSALVFTRLLEFDSTNASEGAQPPGKPYPPYSLAKFSWNNITNSLDLANLSADFQGRPVDDPTGAFANGSLTFKVQAFSRSGRPAQPPRLLHTADVCQLEVALVGASPRGNHSLFGLEVATLGQGPDCPSVNERNSIDDEYAPAVFQLNQLLWGSSPSGFMQWRPVAFSEEERARESALPCQASTLHSTLASSLPHSPIVQAFFGSQNNFCAFNLTFGAPTGPGYWDQYYLCWSMLLGMGFPPVDIFSPLVLGIMAVALGAPGLMFLGGGLFLLLRHRRYSEYQSIN
modifications: N-glycosylated
For B1, the binding entry in experiment [1] and in experiment [2] was “binds” throughout.
